Values from PubChem BioAssay AID1224830 (NIAID, 2016).
Aim: 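Host factors that control LPS-induced TNF expression in human macrophages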 (primary screen). Cells: human THP-1 monocytic leukaemia cells, TNF dual-luciferase reporter clone, PMA-differentiated to macrophage-like cells. Reagent: siRNA pool against human genes, 50 nM. Time to read-out: LPS for 4 h, given about 3 days after siRNA transfection. Challenge: bacterial LPS (TLR4 ligand), 10 ng/ml. Measurement: 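Ratio of firefly to renilla light, scaled to the plate median and expressed as a robust z-score per replicate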. Scale: TNF reporter robust z-score: higher = stronger TNF reporter response to LPS. Hit rule: 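Each well counts as active if its z-score is over 2.8 or under -1.5; controls are left without a call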.
The whole screen tested about 18,000 reagents; this is a part drawn at random. About 2,900 of all reagents (16%) count as active. 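Calls are made per well; low scores hint the gene aids the LPS response, high scores that it dampens it.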 Repeated entries: four replicate wells of each siRNA pool.

no.	Gene	TNF reporter robust z-score	activity call
1	USP29 (ubiquitin specific peptidase 29)	-0.69	inactive
2	USP29 (ubiquitin specific peptidase 29)	0.06	inactive
3	USP29 (ubiquitin specific peptidase 29)	2.03	inactive
4	USP29 (ubiquitin specific peptidase 29)	1.1	inactive
5	GOLT1B (golgi transport 1B)	0.56	inactive
6	GOLT1B (golgi transport 1B)	1.27	inactive
7	GOLT1B (golgi transport 1B)	0.19	inactive
8	GOLT1B (golgi transport 1B)	0.93	inactive
9	FCGR2B (Fc gamma receptor IIb)	0.05	inactive
10	FCGR2B (Fc gamma receptor IIb)	-0.11	inactive
11	FCGR2B (Fc gamma receptor IIb)	-1.16	inactive
12	FCGR2B (Fc gamma receptor IIb)	0	inactive
13	SORCS3 (sortilin related VPS10 domain containing receptor 3)	0.34	inactive
14	SORCS3 (sortilin related VPS10 domain containing receptor 3)	-0.87	inactive
15	SORCS3 (sortilin related VPS10 domain containing receptor 3)	0.8	inactive
16	SORCS3 (sortilin related VPS10 domain containing receptor 3)	-0.66	inactive
17	STK11IP (serine/threonine kinase 11 interacting protein)	-0.91	inactive
18	STK11IP (serine/threonine kinase 11 interacting protein)	-0.4	inactive
19	STK11IP (serine/threonine kinase 11 interacting protein)	-0.52	inactive
20	STK11IP (serine/threonine kinase 11 interacting protein)	-0.24	inactive
21	SMCO4 (single-pass membrane protein with coiled-coil domains 4)	0.4	inactive
22	SMCO4 (single-pass membrane protein with coiled-coil domains 4)	-0.2	inactive
23	SMCO4 (single-pass membrane protein with coiled-coil domains 4)	1.59	inactive
24	SMCO4 (single-pass membrane protein with coiled-coil domains 4)	-0.05	inactive
25	SLC1A5	0.25	inactive
26	SLC1A5	-0.16	inactive
27	SLC1A5	0.08	inactive
28	SLC1A5	-0.06	inactive
29	OGFOD3	-0.32	inactive
30	OGFOD3	0.56	inactive
31	OGFOD3	-0.03	inactive
32	OGFOD3	0.02	inactive
33	EGLN1 (egl-9 family hypoxia inducible factor 1)	1.69	inactive
34	EGLN1 (egl-9 family hypoxia inducible factor 1)	0.69	inactive
35	EGLN1 (egl-9 family hypoxia inducible factor 1)	1.04	inactive
36	EGLN1 (egl-9 family hypoxia inducible factor 1)	1.33	inactive
37	COL27A1 (collagen type XXVII alpha 1 chain)	3.25	active
38	COL27A1 (collagen type XXVII alpha 1 chain)	3.75	active
39	COL27A1 (collagen type XXVII alpha 1 chain)	1.32	inactive
40	COL27A1 (collagen type XXVII alpha 1 chain)	2.12	inactive
41	FICD (FIC domain protein adenylyltransferase)	2.68	inactive
42	FICD (FIC domain protein adenylyltransferase)	0.94	inactive
43	FICD (FIC domain protein adenylyltransferase)	0.05	inactive
44	FICD (FIC domain protein adenylyltransferase)	1.76	inactive
45	LEO1 (LEO1 component of Paf1/RNA polymerase II complex)	0.17	inactive
46	LEO1 (LEO1 component of Paf1/RNA polymerase II complex)	-0.35	inactive
47	LEO1 (LEO1 component of Paf1/RNA polymerase II complex)	-1.07	inactive
48	LEO1 (LEO1 component of Paf1/RNA polymerase II complex)	0.31	inactive
49	ANGPT2 (angiopoietin 2)	0.63	inactive
50	ANGPT2 (angiopoietin 2)	0.08	inactive
51	ANGPT2 (angiopoietin 2)	0.23	inactive
52	ANGPT2 (angiopoietin 2)	0.44	inactive
53	HES5 (hes family bHLH transcription factor 5)	-1.09	inactive
54	HES5 (hes family bHLH transcription factor 5)	-0.19	inactive
55	HES5 (hes family bHLH transcription factor 5)	-0.81	inactive
56	HES5 (hes family bHLH transcription factor 5)	0.22	inactive
57	GRB2 (growth factor receptor bound protein 2)	2.83	active
58	GRB2 (growth factor receptor bound protein 2)	1.28	inactive
59	GRB2 (growth factor receptor bound protein 2)	-0.86	inactive
60	GRB2 (growth factor receptor bound protein 2)	-0.41	inactive
61	C7orf33 (chromosome 7 open reading frame 33)	0.07	inactive
62	C7orf33 (chromosome 7 open reading frame 33)	0.91	inactive
63	C7orf33 (chromosome 7 open reading frame 33)	-0.31	inactive
64	C7orf33 (chromosome 7 open reading frame 33)	0.4	inactive
65	COL18A1-AS1 (COL18A1 antisense RNA 1)	-0.24	inactive
66	COL18A1-AS1 (COL18A1 antisense RNA 1)	0.29	inactive
67	COL18A1-AS1 (COL18A1 antisense RNA 1)	1.05	inactive
68	COL18A1-AS1 (COL18A1 antisense RNA 1)	0.59	inactive
69	SIVA1 (SIVA1 apoptosis inducing factor)	1.94	inactive
70	SIVA1 (SIVA1 apoptosis inducing factor)	3.13	active
71	SIVA1 (SIVA1 apoptosis inducing factor)	3.03	active
72	SIVA1 (SIVA1 apoptosis inducing factor)	1.65	inactive
73	DFFA (DNA fragmentation factor subunit alpha)	0.43	inactive
74	DFFA (DNA fragmentation factor subunit alpha)	-0.33	inactive
75	DFFA (DNA fragmentation factor subunit alpha)	-0.19	inactive
76	DFFA (DNA fragmentation factor subunit alpha)	0.63	inactive
77	LGALS4 (galectin 4)	-0.49	inactive
78	LGALS4 (galectin 4)	0.52	inactive
79	LGALS4 (galectin 4)	-0.33	inactive
80	LGALS4 (galectin 4)	0.07	inactive
81	DRC5 (dynein regulatory complex subunit 5)	-1.32	inactive
82	DRC5 (dynein regulatory complex subunit 5)	0.42	inactive
83	DRC5 (dynein regulatory complex subunit 5)	0.48	inactive
84	DRC5 (dynein regulatory complex subunit 5)	0.34	inactive
85	MAP3K2 (mitogen-activated protein kinase kinase kinase 2)	-0.75	inactive
86	MAP3K2 (mitogen-activated protein kinase kinase kinase 2)	-0.84	inactive
87	MAP3K2 (mitogen-activated protein kinase kinase kinase 2)	-0.8	inactive
88	MAP3K2 (mitogen-activated protein kinase kinase kinase 2)	-1	inactive
89	SERPINA13P (serpin family A member 13, pseudogene)	-0.95	inactive
90	SERPINA13P (serpin family A member 13, pseudogene)	-0.6	inactive
91	SERPINA13P (serpin family A member 13, pseudogene)	-0.26	inactive
92	SERPINA13P (serpin family A member 13, pseudogene)	-0.77	inactive
93	CEP72 (centrosomal protein 72)	0.07	inactive
94	CEP72 (centrosomal protein 72)	0.13	inactive
95	CEP72 (centrosomal protein 72)	0.24	inactive
96	CEP72 (centrosomal protein 72)	-0.09	inactive
97	ERCC6 (ERCC excision repair 6, chromatin remodeling factor)	0.91	inactive
98	ERCC6 (ERCC excision repair 6, chromatin remodeling factor)	-0.04	inactive
99	ERCC6 (ERCC excision repair 6, chromatin remodeling factor)	-0.59	inactive
100	ERCC6 (ERCC excision repair 6, chromatin remodeling factor)	0.22	inactive
101	TYRO3 (TYRO3 protein tyrosine kinase)	0.41	inactive
102	TYRO3 (TYRO3 protein tyrosine kinase)	-0.18	inactive
103	TYRO3 (TYRO3 protein tyrosine kinase)	0.45	inactive
104	TYRO3 (TYRO3 protein tyrosine kinase)	0.55	inactive
105	MTHFD2L	0.21	inactive
106	MTHFD2L	1.02	inactive
107	MTHFD2L	0.46	inactive
108	MTHFD2L	1.48	inactive
109	ARG1 (arginase 1)	0.13	inactive
110	ARG1 (arginase 1)	1.96	inactive
111	ARG1 (arginase 1)	0.25	inactive
112	ARG1 (arginase 1)	1.2	inactive
113	ATXN3 (ataxin 3)	-0.41	inactive
114	ATXN3 (ataxin 3)	0.35	inactive
115	ATXN3 (ataxin 3)	0.2	inactive
116	ATXN3 (ataxin 3)	-0.05	inactive
117	RHPN2 (rhophilin Rho GTPase binding protein 2)	-1.7	active
118	RHPN2 (rhophilin Rho GTPase binding protein 2)	-1.09	inactive
119	RHPN2 (rhophilin Rho GTPase binding protein 2)	-0.79	inactive
120	RHPN2 (rhophilin Rho GTPase binding protein 2)	0.01	inactive
121	ZNF764 (zinc finger protein 764)	-1.39	inactive
122	ZNF764 (zinc finger protein 764)	-0.88	inactive
123	ZNF764 (zinc finger protein 764)	-0.01	inactive
124	ZNF764 (zinc finger protein 764)	-0.39	inactive
125	HS3ST2 (heparan sulfate-glucosamine 3-sulfotransferase 2)	0.08	inactive
126	HS3ST2 (heparan sulfate-glucosamine 3-sulfotransferase 2)	1.04	inactive
127	HS3ST2 (heparan sulfate-glucosamine 3-sulfotransferase 2)	0.53	inactive
128	HS3ST2 (heparan sulfate-glucosamine 3-sulfotransferase 2)	2.13	inactive
129	TP53BP2 (tumor protein p53 binding protein 2)	2.11	inactive
130	TP53BP2 (tumor protein p53 binding protein 2)	1.8	inactive
131	TP53BP2 (tumor protein p53 binding protein 2)	-0.18	inactive
132	TP53BP2 (tumor protein p53 binding protein 2)	0	inactive
133	MGP (matrix Gla protein)	1.46	inactive
134	MGP (matrix Gla protein)	2.05	inactive
135	MGP (matrix Gla protein)	-0.28	inactive
136	MGP (matrix Gla protein)	0.27	inactive
137	ZNF221 (zinc finger protein 221)	2.66	inactive
138	ZNF221 (zinc finger protein 221)	0.02	inactive
139	ZNF221 (zinc finger protein 221)	-0.15	inactive
140	ZNF221 (zinc finger protein 221)	0.12	inactive

Hits, among the entries above:
Gene	TNF reporter robust z-score	activity call
COL27A1 (collagen type XXVII alpha 1 chain)	3.25	active
COL27A1 (collagen type XXVII alpha 1 chain)	3.75	active
GRB2 (growth factor receptor bound protein 2)	2.83	active
SIVA1 (SIVA1 apoptosis inducing factor)	3.13	active
SIVA1 (SIVA1 apoptosis inducing factor)	3.03	active
RHPN2 (rhophilin Rho GTPase binding protein 2)	-1.7	active
